From publication PMC10946950, “Stretching the Bisalkyne Raman Spectral Palette Reveals a New Electrophilic Covalent Motif” (Chemistry (Weinheim an Der Bergstrasse, Germany), 2023)
Some compounds share one range, which may span the group rather than tell each member.

Legend:
ES2 cells = experiment: SRS imaging of cellular uptake and localization; assay type: cell-based, Human; conditions: for intracellular localization/distribution (SRS images): 100 μM compound
Protocol: Figure 4 SRS images of ES2 cells treated with a) BADY, b) 3 f and c) 3 a were taken at three different wavenumbers: CH3, proteins 2942 cm^−1 – grey scale; CH2, lipids 2866 cm^−1 – magenta; and C≡C, alkyne, images taken at 2215 cm^−1/2208 cm^−1 with an off‐resonance image taken ∼30 cm^−1 away subtracted – cyan hot. Cells were treated with 100 μM compound for 1 h. Scale bars: 10 μm.
Figure 5 SRS images of ES2 cells treated with a) Lyso‐Het‐DY (300 μM, 1 h) and b) LD‐Het‐DY (10 μM, 24 h). Images were taken at: CH3, proteins 2942 cm^−1 — grey scale; CH2, lipids 2866 cm^−1 — magenta and C≡C, alkyne, images taken at 2208/2215 cm^−1 with an off‐resonance image taken ∼30 cm^−1 away subtracted – cyan hot. Scale bars: 10 μm.
(§1) 4. Spontaneous Raman Spectroscopy
(§2) Spontaneous Raman spectra of individual compounds in DMSO (10 mM) or in combination with internal standard EdU (100 mM)
(§3) were acquired from sample droplets. The raw spectra were baseline corrected using the Zhangfit method, and further smoothened
(§4) and normalized using Origin 9.6.0.172 (OriginLab Corporation).[57]
(§5) Figure S1. (a) Full spontaneous Raman spectra (500 cm-1 to 3000 cm-1) of DMSO solutions of Het-DY (10 mM) with internal standard EdU (100 mM).
(§6) Tags 3i, 3l and 3n were excluded because of insufficient pure fractions available to acquire good signal intensities. Raman signal of EdU (2112 cm-1)
(§7) was normalized to 1; (b) Zoom in of (a) between 2080 cm -1 and 2260 cm-1 highlighting the relative intensities of tags 3a-3h, 3j, 3k and 3m compared
(§8) to EdU and to each other.
(§9) 5. Sample Preparation for SRS microscopy, Image Acquisition and Analysis
(§10) Cell Culture: Human ovarian cancer cell line ES2 or HeLa cells was purchased from the American Type Culture Collection, and cells
(§11) maintained in a humidified incubator at 37°C and 5% CO2 in Dulbecco’s Modified Eagle Medium (high glucose, Pyruvate, L-
(§12) Glutamine) (SIGMA, cat#D6429) and 10% FCS. Cells were plated into Fluorodish Cell Culture Dishes (World Precision Instruments,
(§13) cat#FD-35-100) for 24 hours before treatment with compound. Details of the dosing concentrations and dosing times are provided in
(§14) the figure legends. For multi-modal imaging experiments cells were treated with either Wheat Germ Agglutinin Alexa Fluor 594
(§15) Conjugate (ThermoFisher cat#W11262), LysoTracker Red DND-99 (ThermoFisher cat#L7528), MitoTracker Red CMXRos
(§16) (ThermoFisher cat#M7512) or Nile Red (Merck cat#72485) made up as per instructions with matching SRS probe. BADY and Het-
(§17) DY probes were made up in DMSO. All dilutions were made in culture media and cells imaged live.
(§18) Two-photon fluorescence and stimulated Raman scattering (SRS) microscopy. Images were acquired using a custom-built
(§19) multi-modal microscope setup. A picoEmerald S (APE, Berlin, Germany) laser provided both a tunable pump laser (700–990 nm, 1.6
(§20) ps, 80 MHz repetition rate) and a spatially and temporally overlapped Stokes laser (1031 nm, 1.8 ps, 80 MHz repetition rate). The
(§21) output beams were inserted into the scanning unit of an Olympus FV1000MPE microscope using a series of dielectric mirrors and a
(§22) 4× lens based beam -expanding module. The resulting 3.4 mm beams were expanded by a furthe r 3.6 lens within the microscope
(§23) and directed into an Olympus XLPL25XWMP N.A. 1.05 objective lens using a short -pass 690 nm dichroic mirror (Olympus).
(§24) Backscattered emission signals from two -photon fluorescence was separated from any reflected excitation light using a short-pass
690 nm dichroic mirror and IR cut f ilter (Olympus). […]

[1] = Spontaneous Raman spectroscopy, relative intensity compared to internal standard EdU; assay type: physicochemical; conditions: 10 mM DMSO sample solutions vs internal standard EdU (100 mM)
Protocol: as §1, §2, §3, §4, §5, §6, §7, §8, §9, §10, §11, §12, §13, §14, §15, §16, §17, §18, §19, §20, §21, §22, §23, §24
690 nm dichroic mirror and IR cut f ilter (Olympus). A series of filters and dichroic mirrors (FF552-Di02, and FF440/520-Di01
(Semrock) and HQ610/75m (Chroma) were then used to deconvolve the different emission signals onto an available photo-multiplier
For SRS measurements, the Stokes beam was modulated with a 20 MHz EoM built into the picoEmerald S. Forward scattered light
was collected by a 25× Olympus XLPL25XWMP N.A. 1.05 objective lens and Stokes light was removed by filtering with an
ET890/220m filter (Chroma). A telescope focused the light onto an APE silicon photodiode connected to an APE lock in amplifier with
the time constant set to 20 µs The lock in amplifier signal was fed into an Olympus FV10-Analog unit. Images at different wavelengths
were acquired sequentially by changing the pump laser wavelength. Fluorescence images where acquired at the alkyne wavelength
pump tuning with a 4 µs pixel dwell time whilst SRS images were recorded with a 20 µs pixel dwell. Laser powers after the objective
(1 picture or pasted object on this page, not shown here)

C(C#Cc1ccccc1)#Cc1ccccc1 [BADY, reference compound]
intracellular localization/distribution (SRS images) (ES2 cells; 1 h): accumulates in lipid droplets | Relative Imaging Intensity Compared to EdU [RIE] [1]: ++ (++ and+represent RIE ranges of 20–30 and 10–20, respectively)

COC(=O)c1ccc(C#CC#Cc2cscn2)cc1 [3 c]
Relative Imaging Intensity Compared to EdU [RIE] [1]: + (++ and+represent RIE ranges of 20–30 and 10–20, respectively)

COC(=O)c1ccc(C#CC#Cc2cccnc2)cc1 [3 f]
intracellular localization/distribution (SRS images) (ES2 cells; 1 h): unchanged compared to BADY | Relative Imaging Intensity Compared to EdU [RIE] [1]: ++ (++ and+represent RIE ranges of 20–30 and 10–20, respectively)

COC(=O)c1ccc(C#CC#Cc2ccncc2)cc1 [3 g]
Relative Imaging Intensity Compared to EdU [RIE] [1]: ++ (++ and+represent RIE ranges of 20–30 and 10–20, respectively)

COC(=O)c1ccc(C#CC#Cc2ncccn2)nc1 [3 j]
Relative Imaging Intensity Compared to EdU [RIE] [1]: + (++ and+represent RIE ranges of 20–30 and 10–20, respectively)

COC(=O)c1ccc(C#CC#Cc2nccs2)cc1 [3 d]
Relative Imaging Intensity Compared to EdU [RIE] [1]: ++ (++ and+represent RIE ranges of 20–30 and 10–20, respectively)

COC(=O)c1ccc(C#CC#Cc2cnccn2)nc1 [3 m]
Relative Imaging Intensity Compared to EdU [RIE] [1]: + (++ and+represent RIE ranges of 20–30 and 10–20, respectively)

O=C(O)CCCCCCCCCCNC(=O)c1ccc(C#CC#Cc2cccnc2)cc1 [8 f]
intracellular localization (SRS images) (ES2 cells; 10 μM, 24 h): lipid rich regions

COC(=O)c1ccc(C#CC#Cc2cncn2C)n1C [3 a]
intracellular localization/distribution (SRS images) (ES2 cells; 1 h): predominantly in the cytoplasm | Relative Imaging Intensity Compared to EdU [RIE] [1]: + (++ and+represent RIE ranges of 20–30 and 10–20, respectively)

COC(=O)c1ccc(C#CC#Cc2cncn2C)cc1 [3 b]
Relative Imaging Intensity Compared to EdU [RIE] [1]: + (++ and+represent RIE ranges of 20–30 and 10–20, respectively)

Cn1cncc1C#CC#Cc1ccc(C(=O)NCCN2CCOCC2)n1C [8 a]
intracellular localization (SRS images) (ES2 cells; 300 μM, 1 h): enriched in lysosomal

COC(=O)c1ccc(C#CC#Cc2ccccc2)nc1 [3 h]
Relative Imaging Intensity Compared to EdU [RIE] [1]: + (++ and+represent RIE ranges of 20–30 and 10–20, respectively)

COC(=O)c1ccc(C#CC#Cc2ccccn2)cc1 [3 e]
Relative Imaging Intensity Compared to EdU [RIE] [1]: ++ (++ and+represent RIE ranges of 20–30 and 10–20, respectively)
